Measurements reported in PubChem BioAssay AID504784 (Drosophila RNAi Screening Center, 2011).
The screen tested about 17,000 reagents; shown is an unselected part of those that have a named target and a result. 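Each column is one replicate's B-score; the combined score over replicates was not deposited, so single values may mislead.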 Names joined by + are all predicted targets of the reagent. Not all columns of the deposit are shown. No sequences are given here.

Screen: 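Fly genes whose silencing alters how much lipid cells keep in droplets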 (primary screen)
System: Drosophila Kc167 embryonic cells
Reagents: long dsRNA against Drosophila genes, about 250 ng dsRNA per well
Duration: 4 days
Challenge: cells fed 400 µM oleic acid bound to BSA
Detection: 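Cells imaged and segmented; ratio of lipid droplet area to nuclear area, log-transformed, then normalised as a B-score over the screen; higher means more stored lipid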
Reading the numbers: droplet/nuclear area B-score: higher = more stored lipid (overstorage)

What is on record for CG2202 [DRSC19841]?
droplet/nuclear area B-score, replicate 1: -0.405

With CG8478 [DRSC16427], how do the results read?
droplet/nuclear area B-score, replicate 1: -0.996

With Klp61F [DRSC08671], what was measured?
droplet/nuclear area B-score, replicate 1: 1.39

With Myc [DRSC18762], what was measured?
droplet/nuclear area B-score, replicate 1: 2.31

For CG14662 [DRSC12248], how do the results read?
droplet/nuclear area B-score, replicate 1: 0.503

What did the screen give for CG32579 [DRSC19872]?
droplet/nuclear area B-score, replicate 1: 0.0666

With U2af38 [DRSC00796], how do the results read?
droplet/nuclear area B-score, replicate 1: 1.92

For CG13407 [DRSC14583], how do the results read?
droplet/nuclear area B-score, replicate 1: 0.0583

With Ir7e [DRSC18011], what does the deposit list?
droplet/nuclear area B-score, replicate 1: 0.373

What did the screen give for CG7744 [DRSC07036]?
droplet/nuclear area B-score, replicate 1: 1.13

What is on record for Or92a [DRSC16771]?
droplet/nuclear area B-score, replicate 1: 0.0427

With se [DRSC10713], what does the deposit list?
droplet/nuclear area B-score, replicate 1: -0.963

For CG12289 [DRSC09874], what does the deposit list?
droplet/nuclear area B-score, replicate 1: 0.734

How did the screen score ENGase [DRSC19952]?
droplet/nuclear area B-score, replicate 1: -0.992

For ENGase [DRSC19953], how do the results read?
droplet/nuclear area B-score, replicate 1: 0.363

What is on record for Alp10 [DRSC09749]?
droplet/nuclear area B-score, replicate 1: -0.585

What did the screen give for CG9631 [DRSC14137]?
droplet/nuclear area B-score, replicate 1: 0.139

For CG13131 [DRSC02227], what was measured?
droplet/nuclear area B-score, replicate 1: 0.0607

What is on record for CG13131 [DRSC23253]?
droplet/nuclear area B-score, replicate 1: -0.53

For Blm + CG14721 [DRSC14943], what does the deposit list?
droplet/nuclear area B-score, replicate 1: 2.62

What did the screen give for CG12159 [DRSC06114]?
droplet/nuclear area B-score, replicate 1: 1.22

How did the screen score CG18538 [DRSC06765]?
droplet/nuclear area B-score, replicate 1: -1.86

With hiro [DRSC08564], what does the deposit list?
droplet/nuclear area B-score, replicate 1: 0.182

What did the screen give for CG33172 [DRSC21793]?
droplet/nuclear area B-score, replicate 1: -1.14

With CG15386 + CG42371 [DRSC00400], what does the deposit list?
droplet/nuclear area B-score, replicate 1: -0.173

Sorted by “droplet/nuclear area B-score, replicate 1” (ascending): some entries from above.
ENGase [DRSC19952] — droplet/nuclear area B-score, replicate 1 = -0.992
se [DRSC10713] — droplet/nuclear area B-score, replicate 1 = -0.963
Alp10 [DRSC09749] — droplet/nuclear area B-score, replicate 1 = -0.585
CG9631 [DRSC14137] — droplet/nuclear area B-score, replicate 1 = 0.139
ENGase [DRSC19953] — droplet/nuclear area B-score, replicate 1 = 0.363
CG12289 [DRSC09874] — droplet/nuclear area B-score, replicate 1 = 0.734

Further records follow:
With Ndae1 [DRSC00975], what was measured?
droplet/nuclear area B-score, replicate 1: 0.055

With Ndae1 [DRSC02770], what does the deposit list?
droplet/nuclear area B-score, replicate 1: -0.276

For CNMaR [DRSC08992], what was measured?
droplet/nuclear area B-score, replicate 1: 1.55

What did the screen give for CNMaR [DRSC10224]?
droplet/nuclear area B-score, replicate 1: 0.718

What is on record for ng2 [DRSC18803]?
droplet/nuclear area B-score, replicate 1: -1.53

How did the screen score Top3beta [DRSC18724]?
droplet/nuclear area B-score, replicate 1: 1.4

Which result is listed for Dcr-1 [DRSC15646]?
droplet/nuclear area B-score, replicate 1: 0.731

What is on record for wg [DRSC03636]?
droplet/nuclear area B-score, replicate 1: -0.151

What is on record for CG2909 [DRSC18241]?
droplet/nuclear area B-score, replicate 1: -2.66

How did the screen score Tango6 [DRSC02671]?
droplet/nuclear area B-score, replicate 1: 0.868

For Serinc [DRSC11296], how do the results read?
droplet/nuclear area B-score, replicate 1: 0.0902

For Elba2 [DRSC00731], what was measured?
droplet/nuclear area B-score, replicate 1: -0.486

With Desat2 [DRSC15919], how do the results read?
droplet/nuclear area B-score, replicate 1: -0.416

Which result is listed for CG32694 [DRSC17844]?
droplet/nuclear area B-score, replicate 1: 3.1

For CG32694 [DRSC17855], what does the deposit list?
droplet/nuclear area B-score, replicate 1: 0.674

For CG32694 [DRSC22670], what was measured?
droplet/nuclear area B-score, replicate 1: 1.45
